# This is one part of the list. Shown are side measurements of this screen, not its main read-out; they come without a call. The list favours compounds with an active or inconclusive main result. Potencies come from curve fits of mixed quality, noted in brackets.
# Assay: qHTS Assay for Lipid Storage Modulators in Drosophila S3 Cells;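 on cell number change: cells counted by Cell Tracker Red CMTPX staining in the red channel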
# Settings: BODIPY lipid droplet fluorescence, 18-24 h; for cell number change: measured here: cell count max response, cells fed with added oleic acid
# Summary of the method: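 Drosophila S3 cells got compounds at several concentrations plus oleic acid (400 uM solution). Laser-scanning cytometry with 488 nm excitation read lipid droplets at 500-530 nm and cells at 575-640 nm. Percent activity was relative to 20 uM Triacsin C.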
# [1] = measured here: lipid fluorescence (Fed channel) AC50, cells fed with added oleic acid
# [2] = measured here: cell number channel AC50, cells fed with added oleic acid
Compound,cell number change [%],AC50 [1],AC50 [2]
CCOc1cc(NC(=S)NCCCN2CCOCC2)c(OCC)cc1NC(=O)C1CC1,1.35,"0.58 µM [rising, full curve, poor fit]",
Cc1c(Cl)cccc1NC(=S)N(Cc1cccnc1)Cc1ccccc1Cl,34.2,,
O=c1[nH]c(CN2CCOCC2)nc2cc(Cl)ccc12,-23.5,"0.146 µM [falling, full curve]","0.0058 µM [falling, full curve, poor fit]"
COc1ccc(/C=N/S(=O)(=O)c2cccs2)cc1,-30.8,"5.17 µM [falling, full curve]","0.206 µM [falling, full curve, poor fit]"
Cc1ccc(S(=O)(=O)N(C)C)cc1NC(=O)C(C)OC(=O)/C=C/c1cccs1 (configuration not stated),-23.2,"14.6 µM [falling, partial curve, poor fit]",
NS(=O)(=O)c1ccc(NC(=O)COC(=O)CSc2n[nH]c(-c3ccccc3)n2)cc1,0.232,"4.11 µM [rising, single point]",
CC1(C)N=C(c2ccccc2)C(=O)N1,-69,,"29.1 µM [falling, single point]"
Cc1ccc(C(NC(=O)C(C)C)c2cc([N+](=O)[O-])c3cccnc3c2O)cc1 (configuration not stated),1.44,"0.58 µM [falling, full curve]",
CCCCN(C)C(=O)C1CCN(Cc2cccnc2)CC1,-17.2,,
Cc1ccsc1/C=N/NC(=O)C(O)c1ccccc1 (configuration not stated),-2.12,"4.61 µM [rising, single point]",
Cn1c(SCC(=O)Nc2cccc(S(=O)(=O)N3CCOCC3)c2)nnc1-c1ccncc1,22.6,,
COc1ccc(N=c2oc3cc(O)ccc3cc2C(=O)NCC2CCCO2)c(OC)c1 (configuration not stated),8.67,"0.092 µM [rising, full curve, poor fit]",
Cc1cccc(-c2noc(CNC(=O)c3ccoc3C)n2)c1,25.4,"0.291 µM [falling, partial curve, poor fit]",
CCc1ccc(N(CC(=O)NCc2ccc(OC)cc2)C(=O)CCC(=O)Nc2ccccn2)cc1,-1.67,,
Cc1cc(C)nc(SCc2nnc(SCc3ccccc3Cl)o2)n1,105,"6.51 µM [rising, single point]","10.3 µM [rising, partial curve]"
CN1CCN(C(=O)c2ccccc2NC(=O)Cc2ccccc2)CC1,30.6,,"13 µM [rising, single point]"
O=C(NC1CCCCC1)N1CCN(c2ccc(Cl)cc2)CC1,-31.7,"29.1 µM [falling, single point]","20.6 µM [falling, single point]"
O=C(CCCCCNC(=O)c1ccccc1Br)N=Nc1c(O)[nH]c2ccccc12,-5.1,,"0.82 µM [falling, full curve, poor fit]"
CCn1cc(C(=O)N2CCc3ccccc32)c(=O)c2cc(S(=O)(=O)N(C)C3CCCCC3)ccc21,14.9,"2.31 µM [rising, full curve, poor fit]",

Compound,cell number change [%],AC50 [1],AC50 [2]
CCN1CCN(S(=O)(=O)c2c(C)cc(C)cc2C)CC1,-25.2,"29.1 µM [rising, single point]",
Cn1c(=O)c2c(nc(NCCOc3ccc(C(C)(C)C)cc3)n2C)n(C)c1=O,-15.1,"0.326 µM [falling, full curve, poor fit]",
O=C(CSc1nnc(NC(=O)C2CC2)s1)Nc1ccccc1,33.3,,"23.1 µM [rising, partial curve]"
CCOC(=O)C(C)CC(C)C(=O)N1CCOCCOCCN(C(=O)C(C)CC(C)C(=O)OCC)CCOCC1 (configuration not stated),-14,"29.1 µM [falling, single point]",
O=C(COc1ccc(S(=O)(=O)N2CCOCC2)cc1)NC1CCCCC1,-47.8,,"29.1 µM [falling, single point]"
Cc1snc(SCC(=O)N/N=C(\N)COc2ccc(F)cc2)c1C#N,-18.9,,
CCOC(=O)c1cc(NC(=O)CC(C)(C)CC(=O)O)ccc1N1CCCCC1,-43.6,"29.1 µM [falling, single point]","18.4 µM [falling, single point]"
Cc1c(Cl)c([N+](=O)[O-])nn1CCCC(=O)Nc1cccc(O)c1,,"1.84 µM [rising, partial curve]","6.51 µM [rising, single point]"
CCOC(=O)/C=C1\CC(=O)Nc2cc(C)c(C)cc2N1,4.62,"5.8 µM [rising, full curve, poor fit]",
Cc1ccc(OCC(=O)Nc2ccccc2C(=O)N2CCCC2)cc1,11,"29.1 µM [rising, single point]",
COC(=O)CSc1nnc(-c2cccnc2)n1-c1cccc(OC)c1,64.8,,"18.4 µM [rising, single point]"
N#CC1(NC(=O)COc2cc(F)ccc2[N+](=O)[O-])CCCCC1,,"0.231 µM [falling, full curve]",
COc1cccc2c(C)nc(Nc3nc(CSc4nnc(C)s4)cc(=O)[nH]3)nc12,,"0.651 µM [rising, full curve]",
CCN(CC)CCNC(=O)Cn1cnc2sc(C)c(S(=O)(=O)N3CC(C)CC(C)C3)c2c1=O (configuration not stated),12.6,,
O=C(c1cc(-c2ccncc2)nc2ccc(Br)cc12)N1CCN(c2ccccn2)CC1,-6.39,"2.91 µM [rising, partial curve]",
COc1ccc(N2CC(C(=O)N/N=C/c3cc([N+](=O)[O-])ccc3O)CC2=O)cc1 (configuration not stated),-14.7,"29.1 µM [falling, single point]",
O=C(NCc1ccc2c(c1)OCO2)c1c[nH]c2ccc(S(=O)(=O)N3CCOCC3)cc2c1=O,-10.8,"0.461 µM [falling, partial curve, poor fit]",
CC1CCC2(CC1)NC(=O)N(CC(=O)NC(=O)NC1CCCC1)C2=O (configuration not stated),3.8,,
CN1CCN(c2ccc(Cl)cc2NC(=O)c2ccc(S(=O)(=O)N(C)C)cc2)CC1,-20.6,"29.1 µM [falling, single point]",

# A different layout for some results above:
Compound	cell number change [%]	AC50 [1]	AC50 [2]
Cc1c(Cl)cccc1NC(=S)N(Cc1cccnc1)Cc1ccccc1Cl	34.2		
O=c1[nH]c(CN2CCOCC2)nc2cc(Cl)ccc12	-23.5	0.146 µM [falling, full curve]	0.0058 µM [falling, full curve, poor fit]
COc1ccc(/C=N/S(=O)(=O)c2cccs2)cc1	-30.8	5.17 µM [falling, full curve]	0.206 µM [falling, full curve, poor fit]
Cc1ccc(S(=O)(=O)N(C)C)cc1NC(=O)C(C)OC(=O)/C=C/c1cccs1 (configuration not stated)	-23.2	14.6 µM [falling, partial curve, poor fit]	
NS(=O)(=O)c1ccc(NC(=O)COC(=O)CSc2n[nH]c(-c3ccccc3)n2)cc1	0.232	4.11 µM [rising, single point]	
CC1(C)N=C(c2ccccc2)C(=O)N1	-69		29.1 µM [falling, single point]
Cc1ccc(C(NC(=O)C(C)C)c2cc([N+](=O)[O-])c3cccnc3c2O)cc1 (configuration not stated)	1.44	0.58 µM [falling, full curve]	
CCCCN(C)C(=O)C1CCN(Cc2cccnc2)CC1	-17.2		
Cc1ccsc1/C=N/NC(=O)C(O)c1ccccc1 (configuration not stated)	-2.12	4.61 µM [rising, single point]	
Cn1c(SCC(=O)Nc2cccc(S(=O)(=O)N3CCOCC3)c2)nnc1-c1ccncc1	22.6		
